Results are given in words; binding and its absence hold for the method and conditions named. Some binding calls cover weakened binding; strength is not graded here.
Key:
[1] = molecular target: human trk proto-oncogene product gp140^trk (human) (UniProt P04629); test: chemical cross-linking of [125I]-NGF to E25-427 and E25-48 cells, immunoprecipitation with anti-trk antiserum
[2] = molecular target: human trk proto-oncogene product gp140^trk (human) (UniProt P04629); test: competition with [125I]-NT-3 on E25-48 cells
[3] = molecular target: human trk proto-oncogene product gp140^trk (human) (UniProt P04629); test: [125I]-βNGF (1 nM) binding to E25-427 and E25-48 cells at 4°C
[4] = molecular target: human trk proto-oncogene product gp140^trk (human) (UniProt P04629); test: [125I]-NGF binding to Sf9 cells
[5] = molecular target: human trk proto-oncogene product gp140^trk (human) (UniProt P04629); test: 0.1 nM [125I]-NGF on E25-42 cells, tested for competition by XNT-4
[6] = molecular target: human trk proto-oncogene product gp140^trk (human) (UniProt P04629); test: [125I]-βNGF binding to cells

Chains of the proteins cited; added tags and fusions are not shown. Residues count along the entry.
UniProt P04629, residues 33-796: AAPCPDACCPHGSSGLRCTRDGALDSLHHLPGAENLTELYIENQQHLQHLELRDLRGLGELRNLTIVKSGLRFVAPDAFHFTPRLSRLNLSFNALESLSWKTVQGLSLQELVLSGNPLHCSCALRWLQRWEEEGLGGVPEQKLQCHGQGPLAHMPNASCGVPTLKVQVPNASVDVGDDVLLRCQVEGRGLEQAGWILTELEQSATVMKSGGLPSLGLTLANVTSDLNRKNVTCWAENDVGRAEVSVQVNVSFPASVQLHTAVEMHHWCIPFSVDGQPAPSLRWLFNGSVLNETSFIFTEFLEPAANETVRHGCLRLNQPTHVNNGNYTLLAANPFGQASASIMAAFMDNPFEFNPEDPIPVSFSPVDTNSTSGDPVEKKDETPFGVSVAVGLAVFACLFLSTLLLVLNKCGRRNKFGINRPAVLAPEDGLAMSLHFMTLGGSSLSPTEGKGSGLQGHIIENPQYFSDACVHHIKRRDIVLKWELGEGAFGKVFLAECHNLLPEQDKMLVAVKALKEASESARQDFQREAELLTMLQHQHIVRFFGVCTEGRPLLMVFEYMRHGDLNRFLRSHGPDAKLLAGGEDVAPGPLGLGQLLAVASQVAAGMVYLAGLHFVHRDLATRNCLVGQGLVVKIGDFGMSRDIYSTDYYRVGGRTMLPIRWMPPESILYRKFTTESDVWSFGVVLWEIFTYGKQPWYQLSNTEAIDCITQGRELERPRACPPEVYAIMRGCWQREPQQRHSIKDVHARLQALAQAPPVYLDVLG
UniProt P01139, residues 122-241: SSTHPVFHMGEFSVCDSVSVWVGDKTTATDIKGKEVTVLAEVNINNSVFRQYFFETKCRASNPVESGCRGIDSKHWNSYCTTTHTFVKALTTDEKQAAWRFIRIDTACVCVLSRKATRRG

binding [1]: binds
binding [2]: binds
binding [3]: binds
binding [4]: binds
binding [5]: binds
binding [6]: binds
Substance: murine 2.5S NGF (βNGF) (from UniProt P01139 122-241) (ligand)
